# Measured values published in article PMC7819943, “Rice protein-binding microarrays: a tool to detect cis-acting elements near promoter regions in rice”.
# Some of the results follow.
# Target: T1, OsSMF1 (Oryza sativa, UniProt Q6ZLB0 1-436)
# T1 sequence: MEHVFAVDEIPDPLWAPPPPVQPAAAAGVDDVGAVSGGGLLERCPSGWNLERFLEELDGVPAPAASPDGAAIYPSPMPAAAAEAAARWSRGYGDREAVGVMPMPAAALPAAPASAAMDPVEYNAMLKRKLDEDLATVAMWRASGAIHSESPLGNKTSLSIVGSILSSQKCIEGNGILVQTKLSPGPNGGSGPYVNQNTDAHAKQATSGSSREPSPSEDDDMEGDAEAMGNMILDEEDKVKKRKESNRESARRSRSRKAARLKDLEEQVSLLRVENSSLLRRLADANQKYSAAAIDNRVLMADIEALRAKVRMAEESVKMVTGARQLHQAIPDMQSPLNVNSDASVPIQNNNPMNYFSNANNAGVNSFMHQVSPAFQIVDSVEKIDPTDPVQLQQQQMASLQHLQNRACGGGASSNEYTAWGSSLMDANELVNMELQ
# Test: protein-binding microarray (RPBM); PBS, 2% BSA, 51.3 ng/ul salmon testes DNA, 50 uM zinc acetate, 200 nM TF, 25 C, 1 h; high values mean tight binding
# Conditions: protein: recombinant; tags: N-terminal polyhistidine and DsRed monomer fusion (pET32a); chain copies: 2; label: CyDye5-dUTP incorporated in the synthesized complementary strand; 3' TTTTT single-stranded linker to array surface; dsDNA, one strand shown
# Method in brief: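 In PBS with 2% BSA, salmon testes DNA and 50 µM zinc acetate, 200 nM protein was incubated on a custom Agilent array at 25 °C for 1 h and then washed off. The array had been made double-stranded by primer extension with Cy5-dUTP and blocked with 2% BSA. The proteins were transcription factors fused N-terminally to polyhistidine and DsRed, expressed in E. coli BL21-CodonPlus and purified on Ni–NTA. The binding signal is per-feature fluorescence intensity (arbitrary units) from an Axon 4000B scanner.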
row,Sequence,binding signal
1,AACCTATGGCGAAATTTTGCGTCATGTCTCGCTCAAATGCCGGAGTCACCTAGTGCAG,3210 fluorescence intensity (a.u.)
2,CGGAGTATACATACGTACACCGCTACATTTCTAGATTACACGGAGTCACCTAGTGCAG,20600 fluorescence intensity (a.u.)
3,CACCAGCGGATGAGCGCCACGTGTCCGCTACAGGCATGGGCGGAGTCACCTAGTGCAG,18100 fluorescence intensity (a.u.)
4,GCTTTCTTGGCTAAAGATGACACGCCTTTTATGCTAGAGGCGGAGTCACCTAGTGCAG,4690 fluorescence intensity (a.u.)
5,GCAAAGATAGACCCAGGGGTTCCGGGTGTGCACCGGCATACGGAGTCACCTAGTGCAG,3220 fluorescence intensity (a.u.)
6,GACACGGAAAAGTGGCGGACCAGTAACGTATATACGCCCACGGAGTCACCTAGTGCAG,21400 fluorescence intensity (a.u.)
7,CTATAGCATCACGAGCCCCAGTCTATGGCACGTGGTCCCGCGGAGTCACCTAGTGCAG,5050 fluorescence intensity (a.u.)
8,CCCCTCCGCGGCTTCACCCCGTGTCCCCGTCACTCTCCGGCGGAGTCACCTAGTGCAG,5800 fluorescence intensity (a.u.)
9,AGTGTTATCGTCAGTTCCAAAAGGTGCTTGACGTGGAAAGCGGAGTCACCTAGTGCAG,6850 fluorescence intensity (a.u.)
10,ACCGGAGATCTAATCTCGGTCAGACCGATGGCAACCAGGTCGGAGTCACCTAGTGCAG,3520 fluorescence intensity (a.u.)
11,TTAGGGGAGTGAATGACAAGTGGAGCCCACGTGGGCCTCACGGAGTCACCTAGTGCAG,6510 fluorescence intensity (a.u.)
12,CCACTTAAATCAAAACCGGGGTCAAAACCACCGAAGGATCCGGAGTCACCTAGTGCAG,31500 fluorescence intensity (a.u.)
13,CCTCTAGATCCTCTATGGTACTATATGTACAGTGCTGTTTCGGAGTCACCTAGTGCAG,42900 fluorescence intensity (a.u.)
14,CTCTCCTGAGGTGCCACTTCACATTAATATGCTCCTTCTGCGGAGTCACCTAGTGCAG,3460 fluorescence intensity (a.u.)
15,GAAACCATGTGTTAGTCAGTCACTCACCGTTGTTGCAGCACGGAGTCACCTAGTGCAG,9240 fluorescence intensity (a.u.)
16,ATGTTATAATGCGTCAATTGATGGCAACTGTTTCCATTGTCGGAGTCACCTAGTGCAG,3240 fluorescence intensity (a.u.)
17,TGTCTCAGGCTCTCGTGTCGGTATACAGGCTCTCGTGTATCGGAGTCACCTAGTGCAG,3820 fluorescence intensity (a.u.)
18,CCGCCGCCGCCGCCGCCGCCGTCGCCATCGCCGTCGTCTTCGGAGTCACCTAGTGCAG,28800 fluorescence intensity (a.u.)
19,GTTACAGTGCGCATTGCAGCAAATCTGCAGGCTCTAGTTGCGGAGTCACCTAGTGCAG,3280 fluorescence intensity (a.u.)
20,CGCGGACCGCACGTTCGCTTGGCCTTCGTGGACGCTGTGGCGGAGTCACCTAGTGCAG,3370 fluorescence intensity (a.u.)
21,AATTATATATCCGATACCAAAGCCAAATCAACACATCACACGGAGTCACCTAGTGCAG,33200 fluorescence intensity (a.u.)
22,CTTTGGATCCACGACGCAGCTATGGCCTCCCCGCCCACCACGGAGTCACCTAGTGCAG,3410 fluorescence intensity (a.u.)
23,TACACCAGACAGCATGCATCGATCGGCAGCCACGTCACAGCGGAGTCACCTAGTGCAG,20000 fluorescence intensity (a.u.)
24,ACAATGGAGTTGTGTGTGTGGATAAGTGGCACGTGGGGATCGGAGTCACCTAGTGCAG,5530 fluorescence intensity (a.u.)
25,CTTGCTGCCTCAAATATTGTTTTATTGATGCCAAAATGTTCGGAGTCACCTAGTGCAG,4070 fluorescence intensity (a.u.)
26,GATGACAATTAACACACGTGGGGCTTCCCTATTCGTCTGACGGAGTCACCTAGTGCAG,3280 fluorescence intensity (a.u.)
27,TATTTTGTTGGTTCACTATGACATATCTCACTATCTCTTTCGGAGTCACCTAGTGCAG,4000 fluorescence intensity (a.u.)

# Quoted from above (3 entries):
row,Sequence,binding signal
8,CCCCTCCGCGGCTTCACCCCGTGTCCCCGTCACTCTCCGGCGGAGTCACCTAGTGCAG,5800 fluorescence intensity (a.u.)
9,AGTGTTATCGTCAGTTCCAAAAGGTGCTTGACGTGGAAAGCGGAGTCACCTAGTGCAG,6850 fluorescence intensity (a.u.)
10,ACCGGAGATCTAATCTCGGTCAGACCGATGGCAACCAGGTCGGAGTCACCTAGTGCAG,3520 fluorescence intensity (a.u.)

# Further entries:

row,Sequence,binding signal
1,TTCTTTATTCTTCCAAGCTGATCGGACGAAAATGCCCCTGCGGAGTCACCTAGTGCAG,3560 fluorescence intensity (a.u.)
2,GTGGCTGGTGCTTGTATTGTGGTCATGGCGGATCGCTGCCCGGAGTCACCTAGTGCAG,3520 fluorescence intensity (a.u.)
3,ACTTAACTAATTATACGCTAATGACACATCTCACGCCTCCCGGAGTCACCTAGTGCAG,4290 fluorescence intensity (a.u.)
4,GCCACATCGCTCTCAGCCAGCGTTTCCAAGCGAGGAGGTACGGAGTCACCTAGTGCAG,3150 fluorescence intensity (a.u.)
5,AGAGGAGGGGAAAGAGATAGGGTGATGACGTGGAATCCTGCGGAGTCACCTAGTGCAG,25900 fluorescence intensity (a.u.)
6,ACATATCTGGTGGTTGGACTAGATGAAGAAGGAAGGAGGTCGGAGTCACCTAGTGCAG,12500 fluorescence intensity (a.u.)
7,TGAAAATATATTCAATTATTGATTCGATAAAACTAATTTACGGAGTCACCTAGTGCAG,3460 fluorescence intensity (a.u.)
8,GGTGTCCGCCATTTCTGCGTCACCGTCTGCCACTGCAAAACGGAGTCACCTAGTGCAG,7660 fluorescence intensity (a.u.)
9,TCGATACAGCTAATACCCGACCGCAACGTGGCGCGCTGACCGGAGTCACCTAGTGCAG,7540 fluorescence intensity (a.u.)
10,TGCATCACACGTACACATCTATCCATCGATCCAGTCCGCCCGGAGTCACCTAGTGCAG,4610 fluorescence intensity (a.u.)
11,GTGCGGAGGCCCATCAAATGCAGCCCAGCCCAGGGAGGTCCGGAGTCACCTAGTGCAG,30500 fluorescence intensity (a.u.)
12,GTTAAATTCGAGGGGTTTCTTGTAATTTCGGGGTGGATAACGGAGTCACCTAGTGCAG,3920 fluorescence intensity (a.u.)
13,TGCTGTGTATAGACGTGTCCCTTTTGTTGGTACACGCCCACGGAGTCACCTAGTGCAG,4620 fluorescence intensity (a.u.)
14,ACATCTCCACACCGCCACTCGCCAAGTCGTCGCCGCCGCCCGGAGTCACCTAGTGCAG,22600 fluorescence intensity (a.u.)
15,ACTTTACGAGTATAAAGCTCCGCATCATCCTCAAAGCAGGCGGAGTCACCTAGTGCAG,3660 fluorescence intensity (a.u.)
16,GTTGCTTGGACTCGGGCCGTGACAGACGTGACGCTTCCCTCGGAGTCACCTAGTGCAG,4100 fluorescence intensity (a.u.)
17,ATGTACTTGATGGAGAACAGTGGCAGCCTTAAGGATCAGACGGAGTCACCTAGTGCAG,11800 fluorescence intensity (a.u.)
18,GAGTCGAGCAGCGCGTCGGCGAGCGCGGACACGAGGTTGGCGGAGTCACCTAGTGCAG,3420 fluorescence intensity (a.u.)
19,AGAGGAGCCCTCGCGTCGGCAAAACCGACGTGACGTGGACCGGAGTCACCTAGTGCAG,30700 fluorescence intensity (a.u.)
20,CGGCAGCGAGAGGCCGGCCACGCACGCACGCACGTCGAAGCGGAGTCACCTAGTGCAG,6430 fluorescence intensity (a.u.)
21,TAGTTTTCTGCAACTTGAACCATAAAACATGTAGTTTTATCGGAGTCACCTAGTGCAG,3910 fluorescence intensity (a.u.)
22,CACAAGCATATGCTCGAAATGCAATGGCGCCTGACGTGTACGGAGTCACCTAGTGCAG,13600 fluorescence intensity (a.u.)
23,GCCTATTCGCGCCACCCACATCACGCCCCTACTCGAACATCGGAGTCACCTAGTGCAG,3500 fluorescence intensity (a.u.)
24,TCCGCCACCCAACACAGCAGCAGCTGCCACGTGCTCGCGCCGGAGTCACCTAGTGCAG,4720 fluorescence intensity (a.u.)
25,TCCGTTGAGATCAGCACTTTCTAGCAGCTGTACAAGAGACCGGAGTCACCTAGTGCAG,3740 fluorescence intensity (a.u.)
26,ATCATTAACCGCGTCTTATTATTGTATTTATTTAGTATTACGGAGTCACCTAGTGCAG,22200 fluorescence intensity (a.u.)
27,TGATCATAATACACGCACTACAACGTGGGAGCATCCATGTCGGAGTCACCTAGTGCAG,3940 fluorescence intensity (a.u.)
